For one molecule, LD50 results are on record in patent publication US4937266A, “Inhibitory agent of hepatic fibrosis” (priority 1988, dated 1990).

The term LD50 denotes the dose at which mortality reaches 50%. A lower LD50 goes with a more toxic substance.

The nature of this data set: in vivo. The conditions noted are these: mouse, po.

For the molecule `CC(C)(CO)[C@@H](O)C(=O)NCCC(=O)NCCSSCCNC(=O)CCNC(=O)[C@H](O)C(C)(C)CO` [Pantethine, D-bis-(N-pantothenyl-β-aminoethyl)-disulfide], the LD50 is above 10000 mg/kg.
